Laboratory results: PMC10323247
Results are given in words; binding and its absence hold for the method and conditions named. Binding seen in cells or lysates may run through a third protein. Some entries that bind do so weakly or less than the wild type. Sequences can lack the tags named with a protein.

T1: HAUS2 with C-terminal mGFP-TEV-TwinStrep tag (human) (UniProt Q9NVX0)
T1 sequence: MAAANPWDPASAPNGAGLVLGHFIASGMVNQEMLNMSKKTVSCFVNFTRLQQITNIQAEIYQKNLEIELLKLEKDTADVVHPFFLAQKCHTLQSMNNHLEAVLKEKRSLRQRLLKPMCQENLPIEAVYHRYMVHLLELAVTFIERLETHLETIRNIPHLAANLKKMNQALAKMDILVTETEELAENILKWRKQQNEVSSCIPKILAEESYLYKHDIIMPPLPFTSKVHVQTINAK


molecular target: T1, HAUS2 with C-terminal mGFP-TEV-TwinStrep tag (human); assay: pull-down + SEC; eight subunits co-expressed in High Five cells; captured by the TwinStrep tag of HAUS2 on StrepTrap HP (lysis buffer with 400 mM NaCl), eluted with desthiobiotin, then Superose 6 Increase SEC (250 mM NaCl); subunits in fractions E2-E3 seen by SDS-PAGE and western blotting

Row | binding | Binder
1 | binds | HAUS6 (protein, UniProt Q7Z4H7-1 1-955) MSSASVTAFEKEHLWMYLQALGFEPGPATIACGKIVSHTHLGVNMFDKLNRDAFHIISYFLFQVLDQSLTKEVFKFCWPPFDQKSDTEFRKHCCEWIKRISGECGSSFPQVVGSLFLSPGGPKFIHLMYHFARFVAMKYIKSNSKNSSHHFVETFNIKPQDLHKCIARCHFARSRFLQILQRQDCVTQKYQENAQLSVKQVRNLRSECIGLENQIKKMEPYDDHSNMEEKIQKVRSLWASVNETLMFLEKEREVVSSVLSLVNQYALDGTNVAINIPRLLLDKIEKQMFQLHIGNVYEAGKLNLLTVIQLLNEVLKVMKYERCQADQARLTVDLHYLEKETKFQKERLSDLKHMRYRIKDDLTTIRHSVVEKQGEWHKKWKEFLGLSPFSLIKGWTPSVDLLPPMSPLSFDPASEEVYAKSILCQYPASLPDAHKQHNQENGCRGDSDTLGALHDLANSPASFLSQSVSSSDRNSVTVLEKDTKMGTPKEKNEAISKKIPEFEVENSPLSDVAKNTESSAFGGSLPAKKSDPFQKEQDHLVEEVARAVLSDSPQLSEGKEIKLEELIDSLGSNPFLTRNQIPRTPENLITEIRSSWRKAIEMEENRTKEPIQMDAEHREVLPESLPVLHNQREFSMADFLLETTVSDFGQSHLTEEKVISDCECVPQKHVLTSHIDEPPTQNQSDLLNKKVICKQDLECLAFTKLSETSRMETFSPAVGNRIDVMGGSEEEFMKILDHLEVSCNKPSTNKTMLWNSFQISSGISSKSFKDNDFGILHETLPEEVGHLSFNSSSSSEANFKLEPNSPMHGGTLLEDVVGGRQTTPESDFNLQALRSRYEALKKSLSKKREESYLSNSQTPERHKPELSPTPQNVQTDDTLNFLDTCDLHTEHIKPSLRTSIGERKRSLSPLIKFSPVEQRLRTTIACSLGELPNLKEEDILNKSLDAKEPPSDLTR
2 | binds | HAUS5 (protein, UniProt O94927-1 1-633) MELAQEARELGCWAVEEMGVPVAARAPESTLRRLCLGQGADIWAYILQHVHSQRTVKKIRGNLLWYGHQDSPQVRRKLELEAAVTRLRAEIQELDQSLELMERDTEAQDTAMEQARQHTQDTQRRALLLRAQAGAMRRQQHTLRDPMQRLQNQLRRLQDMERKAKVDVTFGSLTSAALGLEPVVLRDVRTACTLRAQFLQNLLLPQAKRGSLPTPHDDHFGTSYQQWLSSVETLLTNHPPGHVLAALEHLAAEREAEIRSLCSGDGLGDTEISRPQAPDQSDSSQTLPSMVHLIQEGWRTVGVLVSQRSTLLKERQVLTQRLQGLVEEVERRVLGSSERQVLILGLRRCCLWTELKALHDQSQELQDAAGHRQLLLRELQAKQQRILHWRQLVEETQEQVRLLIKGNSASKTRLCRSPGEVLALVQRKVVPTFEAVAPQSRELLRCLEEEVRHLPHILLGTLLRHRPGELKPLPTVLPSIHQLHPASPRGSSFIALSHKLGLPPGKASELLLPAAASLRQDLLLLQDQRSLWCWDLLHMKTSLPPGLPTQELLQIQASQEKQQKENLGQALKRLEKLLKQALERIPELQGIVGDWWEQPGQAALSEELCQGLSLPQWRLRWVQAQGALQKLCS

Continued, binder first:

Row | Binder | binding
3 | HAUS4 (protein, UniProt Q9H6D7-1 1-363) MASGDFCSPGEGMEILQQVCSKQLPPCNLSKEDLLQNPYFSKLLLNLSQHVDESGLSLTLAKEQAQAWKEVRLHKTTWLRSEILHRVIQELLVDYYVKIQDTNVTSEDKKFHETLEQRLLVTELMRLLGPSQEREIPPLLGLEKADLLELMPLSEDFVWMRARLQQEVEEQLKKKCFTLLCYYDPNSDADSETVKAAKVWKLAEVLVGEQQQCQDAKSQQKEQMLLLEKKSAAYSQVLLRCLTLLQRLLQEHRLKTQSELDRINAQYLEVKCGAMILKLRMEELKILSDTYTVEKVEVHRLIRDRLEGAIHLQEQDMENSRQVLNSYEVLGEEFDRLVKEYTVLKQATENKRWALQEFSKVYR | binds
4 | HAUS1 with C-terminal 3C-His6 tag (protein, UniProt Q96CS2-1 1-278) MEPQEERETQVAAWLKKIFGDHPIPQYEVNPRTTEILHHLSERNRVRDRDVYLVIEDLKQKASEYESEAKYLQDLLMESVNFSPANLSSTGSRYLNALVDSAVALETKDTSLASFIPAVNDLTSDLFRTKSKSEEIKIELEKLEKNLTATLVLEKCLQEDVKKAELHLSTERAKVDNRRQNMDFLKAKSEEFRFGIKAAEEQLSARGMDASLSHQSLVALSEKLARLKQQTIPLKKKLESYLDLMPNPSLAQVKIEEAKRELDSIEAELTRRVDMMEL | binds
5 | HAUS3 (protein, UniProt Q68CZ6-1 1-603) MSCGNEFVETLKKIGYPKADNLNGEDFDWLFEGVEDESFLKWFCGNVNEQNVLSERELEAFSILQKSGKPILEGAALDEALKTCKTSDLKTPRLDDKELEKLEDEVQTLLKLKNLKIQRRNKCQLMASVTSHKSLRLNAKEEEATKKLKQSQGILNAMITKISNELQALTDEVTQLMMFFRHSNLGQGTNPLVFLSQFSLEKYLSQEEQSTAALTLYTKKQFFQGIHEVVESSNEDNFQLLDIQTPSICDNQEILEERRLEMARLQLAYICAQHQLIHLKASNSSMKSSIKWAEESLHSLTSKAVDKENLDAKISSLTSEIMKLEKEVTQIKDRSLPAVVRENAQLLNMPVVKGDFDLQIAKQDYYTARQELVLNQLIKQKASFELLQLSYEIELRKHRDIYRQLENLVQELSQSNMMLYKQLEMLTDPSVSQQINPRNTIDTKDYSTHRLYQVLEGENKKKELFLTHGNLEEVAEKLKQNISLVQDQLAVSAQEHSFFLSKRNKDVDMLCDTLYQGGNQLLLSDQELTEQFHKVESQLNKLNHLLTDILADVKTKRKTLANNKLHQMEREFYVYFLKDEDYLKDIVENLETQSKIKAVSLED | binds
